In article PMC5066494, “Interaction between RNA helicase ROOT INITIATION DEFECTIVE 1 and GAMETOPHYTIC FACTOR 1 is involved in female gametophyte development in Arabidopsis” (Journal of Experimental Botany, 2016):

Target: T1, GAMETOPHYTIC FACTOR 1 (GFA1), full length, fused to the Gal4 DNA-binding domain (Arabidopsis) (UniProt Q9LNC5)
T1 sequence: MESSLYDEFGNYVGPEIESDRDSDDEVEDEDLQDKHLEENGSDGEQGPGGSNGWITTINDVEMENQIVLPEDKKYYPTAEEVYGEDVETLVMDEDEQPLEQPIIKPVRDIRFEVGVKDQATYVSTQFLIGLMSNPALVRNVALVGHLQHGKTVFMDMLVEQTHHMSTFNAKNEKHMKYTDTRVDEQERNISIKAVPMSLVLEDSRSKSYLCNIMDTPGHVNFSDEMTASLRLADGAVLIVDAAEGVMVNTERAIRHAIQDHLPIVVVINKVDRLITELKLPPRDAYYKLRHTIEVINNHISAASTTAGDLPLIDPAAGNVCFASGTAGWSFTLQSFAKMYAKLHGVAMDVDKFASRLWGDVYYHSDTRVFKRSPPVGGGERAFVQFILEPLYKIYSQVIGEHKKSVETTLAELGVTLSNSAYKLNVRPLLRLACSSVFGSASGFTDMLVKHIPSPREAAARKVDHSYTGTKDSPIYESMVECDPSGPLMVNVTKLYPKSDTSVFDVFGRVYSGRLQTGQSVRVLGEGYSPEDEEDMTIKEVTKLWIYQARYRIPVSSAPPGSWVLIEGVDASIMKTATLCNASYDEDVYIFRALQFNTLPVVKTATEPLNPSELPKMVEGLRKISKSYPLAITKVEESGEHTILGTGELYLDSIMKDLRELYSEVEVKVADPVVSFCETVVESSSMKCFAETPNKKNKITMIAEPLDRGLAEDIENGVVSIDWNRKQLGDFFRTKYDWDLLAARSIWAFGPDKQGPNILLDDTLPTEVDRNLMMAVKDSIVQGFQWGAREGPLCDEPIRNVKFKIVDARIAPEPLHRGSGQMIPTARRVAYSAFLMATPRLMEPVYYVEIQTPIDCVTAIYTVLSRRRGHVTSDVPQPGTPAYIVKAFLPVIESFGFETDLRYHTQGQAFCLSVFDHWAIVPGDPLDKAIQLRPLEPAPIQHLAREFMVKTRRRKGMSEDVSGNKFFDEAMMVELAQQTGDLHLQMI
Assay: two-hybrid; S. cerevisiae Y2H gold; RID1 or its fragments in pGADT7 (AD), GFA1 in pGBKT7 (BD); growth on SD/−Trp/−Leu/−His/−Ade and blue colour with X-α-gal; 30 °C, 3–5 d

| Substance | binding |
| --- | --- |
| RID1 segment containing the HA2 domain, fused to the Gal4 activation domain (Arabidopsis) (domain or fragment) | no binding |
| RID1 segment containing the OB-fold domain, fused to the Gal4 activation domain (Arabidopsis) (domain or fragment) | no binding |

Results are given in words; binding and its absence hold for the method and conditions named. Sequences can lack the tags named with a protein.
